Test results published in article PMC4078943.

Target: Nicotiana benthamiana pathogenesis-related protein 10 (Nicotiana benthamiana)
Experiment: two-hybrid; Matchmaker GAL4 Two-Hybrid System3 (Clontech); NbPR-10 in pGBKT7, P31 in pGADT7; S. cerevisiae AH109 and Y187; co-transformants plated on SD/-Ade/-His/-Leu/-Trp

B1: Beet necrotic yellow vein virus RNA4-encoded P31 (protein, UniProt Q65670 1-282)
chain: MADGEICRCQVTDPPLIRHEDYDCTARMVQKRIEIGPLGVLLNLNMLFHMSRVRHIDVYPYLNNIMSISVSLDVPVSSGVGVGRVRVLIFTTSRERVGIFHGWQVVPGCFLNAPCYSGVDVLSDELCEANITNTSVSSVAMFNGSYRPEDVWILLLTSSTCYGYHDVVVDIEQCTLPSNIDGCVCCSGVCYFNDNHCFCGRRDSNPFNPPCFQFIKDCNELYGTNETKQFICDLVGDDNLDSVNTLTKEGWRRFCDVLWNTTYGDVESRTFARFLWFVFYHD
  binding: no binding

These are yes or no findings as the source states them, for the method shown.
